Results are given in words; binding and its absence hold for the method and conditions named. Some binding calls cover weakened binding; strength is not graded here.

For this experiment, the target named is T1, Orc2 (S. cerevisiae), P32833.
T1 chain: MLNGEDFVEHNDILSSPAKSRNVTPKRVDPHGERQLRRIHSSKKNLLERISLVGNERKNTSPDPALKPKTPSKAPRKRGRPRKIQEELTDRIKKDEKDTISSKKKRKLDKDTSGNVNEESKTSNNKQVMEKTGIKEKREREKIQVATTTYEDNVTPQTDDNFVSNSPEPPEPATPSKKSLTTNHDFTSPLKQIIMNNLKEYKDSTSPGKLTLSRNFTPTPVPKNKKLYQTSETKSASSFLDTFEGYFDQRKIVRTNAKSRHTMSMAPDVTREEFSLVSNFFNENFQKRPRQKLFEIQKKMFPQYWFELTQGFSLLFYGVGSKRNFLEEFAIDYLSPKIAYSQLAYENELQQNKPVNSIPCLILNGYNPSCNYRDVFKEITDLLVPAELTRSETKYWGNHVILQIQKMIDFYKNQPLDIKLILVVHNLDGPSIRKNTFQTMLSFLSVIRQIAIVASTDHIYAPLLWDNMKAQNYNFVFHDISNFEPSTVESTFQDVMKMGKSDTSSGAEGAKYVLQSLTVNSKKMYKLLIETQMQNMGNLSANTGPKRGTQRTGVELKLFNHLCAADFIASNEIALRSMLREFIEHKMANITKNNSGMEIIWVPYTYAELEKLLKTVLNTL
In words: cryo-EM structure; semi-attached OCCM, 4.3 Å; assembled from purified ORC, Cdc6, Cdt1 and mutant Mcm2-7 on pUC19-ARS1 DNA beads with 3 mM ATPγS, 15 min at 24 °C, eluted with DNase I; both purified. Conditions: remark: other sources report otherwise.

B1: Cdc6 (natural protein, S. cerevisiae)
chain: MSAIPITPTKRIRRNLFDDAPATPPRPLKRKKLQFTDVTPESSPEKLQFGSQSIFLRTKALLQKSSELVNLNSSDGALPARTAEYEQVMNFLAKAISEHRSDSLYITGPPGTGKTAQLDMIIRQKFQSLPLSLSTPRSKDVLRHTNPNLQNLSWFELPDGRLESVAVTSINCISLGEPSSIFQKIFDSFQDLNGPTLQIKNMQHLQKFLEPYHKKTTFVVVLDEMDRLLHANTSETQSVRTILELFLLAKLPTVSFVLIGMANSLDMKDRFLSRLNLDRGLLPQTIVFQPYTAEQMYEIVIQKMSSLPTIIFQPMAIKFAAKKCAGNTGDLRKLFDVLRGSIEIYELEKRFLLSPTRGSLNSAQVPLTPTTSPVKKSYPEPQGKIGLNYIAKVFSKFVNNNSTRTRIAKLNIQQKLILCTIIQSLKLNSDATIDESFDHYIKAITKTDTLAPLQRNEFLEICTILETCGLVSIKKTKCKGKTKRFVDKIDVDLDMREFYDEMTKISILKPFLH
notes: Cdc6 of S. cerevisiae
On to B1, for which the binding result was “binds”.
